{"sequences": {"note": "The chains behind the UniProt entries cited, without tags or fusion partners.", "UniProt P63279": "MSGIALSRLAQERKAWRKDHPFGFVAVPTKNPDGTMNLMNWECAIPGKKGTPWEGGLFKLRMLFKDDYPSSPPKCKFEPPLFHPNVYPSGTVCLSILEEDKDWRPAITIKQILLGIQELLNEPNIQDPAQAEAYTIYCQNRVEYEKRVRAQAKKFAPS"}, "source": "paper doi:10.1101/2022.04.11.487628", "binders": {"B1": {"name": "EME1 co-precipitated with ^mCUBC9 (detected with anti-EME1 serum) (protein, UniProt Q96AY2 1-570)", "chain": "MALKKSSPSLDSGDSDSEELPTFAFLKKEPSSTKRRQPEREEKIVVVDISDCEASCPPAPELFSPPVPEIAETVTQTQPVRLLSSESEDEEEFIPLAQRLTCKFLTHKQLSPEDSSSPVKSVLDHQNNEGASCDWKKPFPKIPEVPLHDTPERSAADNKDLILDPCCQLPAYLSTCPGQSSSLAVTKTNSDILPPQKKTKPSQKVQGRGSHGCRQQRQARQKESTLRRQERKNAALVTRMKAQRPEECLKHIIVVLDPVLLQMEGGGQLLGALQTMECRCVIEAQAVPCSVTWRRRAGPSEDREDWVEEPTVLVLLRAEAFVSMIDNGKQGSLDSTMKGKETLQGFVTDITAKTAGKALSLVIVDQEKCFSAQNPPRRGKQGANKQTKKQQQRQPEASIGSMVSRVDAEEALVDLQLHTEAQAQIVQSWKELADFTCAFTKAVAEAPFKKLRDETTFSFCLESDWAGGVKVDLAGRGLALVWRRQIQQLNRVSLEMASAVVNAYPSPQLLVQAYQQCFSDKERQNLLADIQVRRGEGVTSTSRRIGPELSRRIYLQMTTLQPHLSLDSAD"}, "B2": {"name": "MUS81 (bacterially co-expressed with 6x-His-EME1) (enzyme, UniProt Q96NY9 1-551)", "chain": "MAAPVRLGRKRPLPACPNPLFVRWLTEWRDEATRSRRRTRFVFQKALRSLRRYPLPLRSGKEAKILQHFGDGLCRMLDERLQRHRTSGGDHAPDSPSGENSPAPQGRLAEVQDSSMPVPAQPKAGGSGSYWPARHSGARVILLVLYREHLNPNGHHFLTKEELLQRCAQKSPRVAPGSARPWPALRSLLHRNLVLRTHQPARYSLTPEGLELAQKLAESEGLSLLNVGIGPKEPPGEETAVPGAASAELASEAGVQQQPLELRPGEYRVLLCVDIGETRGGGHRPELLRELQRLHVTHTVRKLHVGDFVWVAQETNPRDPANPGELVLDHIVERKRLDDLCSSIIDGRFREQKFRLKRCGLERRVYLVEEHGSVHNLSLPESTLLQAVTNTQVIDGFFVKRTADIKESAAYLALLTRGLQRLYQGHTLRSRPWGTPGNPESGAMTSPNPLCSLLTFSDFNAGAIKNKAQSVREVFARQLMQVRGVSGEKAAALVDRYSTPASLLAAYDACATPKEQETLLSTIKCGRLQRNLGPALSRTLSQLYCSYGPLT"}}, "key": {"[1]": {"biological_target": "HA-Strep-mCherry tagged full-length UBC9 wild-type (^mCUBC9) (UniProt P63279)", "assay": "co-IP"}, "[2]": {"biological_target": "T1, 6x-His-EME1 (bacterially co-expressed with MUS81) (human) (UniProt Q96AY2)", "T1 sequence": "B1 chain", "assay": "co-purification"}}, "note": "No constants are given. Whether binding was seen depends on the method and setting. For some assays here: In cells and extracts the contact can be indirect. Some results given as binding are weak or reduced against the parent protein; the word gives no strength. For some assays here: Tags and fused reporters may be left off the sequences shown.", "data": [{"binder": "B1", "values": [{"measurement": "binding", "setting": "[1]", "value": "binds"}]}, {"binder": "B2", "values": [{"measurement": "binding", "setting": "[2]", "value": "binds"}]}]}
